Test results reported in the supplement of paper PMC12823440, “Inhibitors supercharge kinase turnover through native proteolytic circuits” (Nature, 2025).
The list shows a part of the results. Hit calls seldom repeat between salt and free forms of one compound.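 In K562 cells expressing nanoluciferase-fused kinases, luminescence was recorded at 4 h intervals between 2 and 18 h, normalized as percent of control with DMSO at 100% and a positive control at 0%. A significant (2 sigma) signal drop marks a time point as decreased. The authors' rule for a hit is not shown and takes in more than the number of time points.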

The chains behind the UniProt entries cited, without tags or fusion partners.
UniProt P11362, whole entry, looked up: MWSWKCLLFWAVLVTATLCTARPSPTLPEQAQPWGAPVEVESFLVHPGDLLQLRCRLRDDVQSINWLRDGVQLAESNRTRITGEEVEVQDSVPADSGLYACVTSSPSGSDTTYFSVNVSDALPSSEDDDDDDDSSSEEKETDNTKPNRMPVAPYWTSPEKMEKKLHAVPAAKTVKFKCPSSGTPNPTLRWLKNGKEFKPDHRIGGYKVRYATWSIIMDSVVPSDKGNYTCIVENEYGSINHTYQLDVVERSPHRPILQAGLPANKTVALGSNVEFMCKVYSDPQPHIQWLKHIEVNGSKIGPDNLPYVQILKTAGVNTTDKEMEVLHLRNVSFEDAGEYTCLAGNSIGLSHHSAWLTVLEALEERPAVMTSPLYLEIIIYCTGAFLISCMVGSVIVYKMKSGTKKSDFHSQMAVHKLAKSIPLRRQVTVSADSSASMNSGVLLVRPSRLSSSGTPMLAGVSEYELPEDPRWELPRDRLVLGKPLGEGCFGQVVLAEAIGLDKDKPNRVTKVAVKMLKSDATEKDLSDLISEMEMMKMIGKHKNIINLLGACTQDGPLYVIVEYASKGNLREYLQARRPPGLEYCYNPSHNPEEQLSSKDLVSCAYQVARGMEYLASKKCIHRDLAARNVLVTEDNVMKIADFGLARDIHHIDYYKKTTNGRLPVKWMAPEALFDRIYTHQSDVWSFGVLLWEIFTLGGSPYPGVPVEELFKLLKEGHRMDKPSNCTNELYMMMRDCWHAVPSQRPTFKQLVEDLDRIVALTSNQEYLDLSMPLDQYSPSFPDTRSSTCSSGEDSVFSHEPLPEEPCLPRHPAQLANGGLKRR

Each molecule was assayed against FGFR1 (UniProt P11362) (assay: kinase-Nluc reporter destabilization hit call (1 = scored as downregulated) (binary); higher = compound decreases kinase abundance). Settings: K562; 2-18 h.

kinase-Nluc reporter destabilization hit call, inactive:
O=c1cc(-c2ccc(O[C@@H]3O[C@H](CO)[C@@H](O)[C@H](O)[C@H]3O)cc2)oc2cc(O)c([C@@H]3O[C@H](CO)[C@@H](O)[C@H](O)[C@H]3O[C@@H]3OC[C@H](O)[C@H](O)[C@H]3O)c(O)c12 [Vaccarin] (10 µM) 0
O=CN1CCN(c2ccc(C=C3C(=O)Nc4ccccc43)cc2)CC1 (10 µM) 0
COc1ccc(Cl)cc1N(CC(=O)Nc1ccc2c(c1)OCO2)S(=O)(=O)c1ccccc1 (2.5 µM) 0
CCc1c(C(=O)NNC(=O)[C@H](O)c2cc(F)cc(F)c2)ccc(O)c1C (10 µM) 0
CN(C)CCn1cc2cc(NC(=O)c3cccc(C(F)(F)F)n3)c(C(C)(C)O)cc2n1 (10 µM) 0
CCC[C@H](C)Oc1nc(N)c2[nH]c(=O)n(CCCCCN3CCCCC3)c2n1 (10 µM) 0
CCOC(=O)c1c(C)[nH]c(C=C2C(=O)Nc3ccccc32)c1C (10 µM) 0
Cc1ccc(NC(=O)N2CCN(c3nc(N)nc4sc(-c5cccnc5)nc34)CC2)cc1 [PI4KIII beta inhibitor 3] (10 µM) 0
CS[C@@]1(C(=O)Nc2ccc3[nH]nc(-c4ccc(OC(C)C)nc4)c3c2)CCN(CC(=O)N2CC=C(c3ccc(-c4ncn(C)n4)cc3)CC2)C1 (2.5 µM) 0
O=C(Nc1ccc(Cl)cc1)C1CN(C(=O)c2cccc(-c3ccco3)c2)CC(F)(F)C1 (stereo unspecified) (2.5 µM) 0
Nc1ccc(Sc2nc3ccccc3s2)c(Cl)c1 [KRAS inhibitor-9] (10 µM) 0

A run of entries of the results above, for reference:
kinase-Nluc reporter destabilization hit call, inactive:
O=c1cc(-c2ccc(O[C@@H]3O[C@H](CO)[C@@H](O)[C@H](O)[C@H]3O)cc2)oc2cc(O)c([C@@H]3O[C@H](CO)[C@@H](O)[C@H](O)[C@H]3O[C@@H]3OC[C@H](O)[C@H](O)[C@H]3O)c(O)c12 [Vaccarin] (10 µM) 0
O=CN1CCN(c2ccc(C=C3C(=O)Nc4ccccc43)cc2)CC1 (10 µM) 0
